Measurements published in patent publication US20250101113A1.
These are yes or no findings as the source states them, for the method shown. Some entries that bind do so weakly or less than the wild type.

Chains of the proteins cited; added tags and fusions are not shown. Lines headed by an entry give the natural chain unless they say otherwise; changes in a name come on top.
UniProt Q13241: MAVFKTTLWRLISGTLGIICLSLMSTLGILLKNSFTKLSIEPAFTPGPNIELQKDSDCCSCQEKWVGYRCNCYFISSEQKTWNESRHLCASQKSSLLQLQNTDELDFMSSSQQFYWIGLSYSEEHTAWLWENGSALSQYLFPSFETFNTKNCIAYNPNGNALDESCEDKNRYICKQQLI

Key:
[1] = target: human CD94 on cells (human) (UniProt Q13241); experiment: flow cytometry, AF647-conjugated antibody on CD94-transfected L cells and normal donor PBMC
[2] = target: human CD94 on cells (human) (UniProt Q13241); experiment: flow cytometry, AF647-conjugated antibody on NK cell lines
[3] = target: human CD94 on cells (human) (UniProt Q13241); experiment: flow cytometry on wild-type and CRISPR-Cas9 CD94 knock-out KHYG-1 and NK92 cells

Measured: binding

B1: UT-CD94 monoclonal antibody (murine anti-human CD94 monoclonal antibody generated by hybridoma technology) (antibody, V domains shown)
VH: EVQLQQSGAELVKPGASVKLSCTASGFNIKDTYMHWVKQRPEQGLEWIGRIDPANGNTQYDPKFQGKATIPADTSSNTAYLQLSSLTSEDTAVYYCVYGRGSAWFAFWGQGTLVTVSA
VL: DIQMTQTTSSLSASLGDRVTISCRASQDISNYLNWYQQKPDGTVKLLIYYTSRLHSGVPSRFSGSGSGTDYSLTISNLEQEDIATYFCQQGNTLPWTFGGGTKLEIK
binds: all assays above
